PubChem BioAssay AID1159584 | Peter MacCallum Cancer Centre | 2016
This is one part, drawn at random, of about 18,000 reagents. The numbers tell different reagents against one gene apart. Not all columns of the deposit are shown. Not given: the amount of reagent, the time to read-out.

Purpose: 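Knock-downs that harm CDH1-null cells more than parental MCF10A cells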 (primary screen)
Cell system: human MCF10A breast epithelial cells, parental and CDH1-null
Reagents: siRNA against human genes
Measured: 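Cell viability by CellTiter-Glo ATP luminescence, each line scaled to the mean of mock wells across plates, then CDH1-null over parental ratio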
Direction: CDH1-null / parental viability ratio: higher = CDH1-null cells survive relatively better than parental

| CDH1-null / parental viability ratio | gene symbol | reagent no. |
| --- | --- | --- |
| 1.1 | SPTBN5 (spectrin beta, non-erythrocytic 5) | 1 |
| 0.94 | SLC25A4 | 1 |
| 0.94 | CLK3 (CDC like kinase 3) | 1 |
| 1.15 | UBE2Q2 (ubiquitin conjugating enzyme E2 Q2) | 1 |
| 1.14 | IER3 (immediate early response 3) | 1 |
| 0.77 | MXD3 (MAX dimerization protein 3) | 1 |
| 1.33 | ELK1 (ETS transcription factor ELK1) | 1 |
| 0.95 | FAM78B (family with sequence similarity 78 member B) | 1 |
| 0.87 | TNFRSF14 (TNF receptor superfamily member 14) | 1 |
| 1.33 | FZD3 (frizzled class receptor 3) | 1 |
| 1.01 | ELMOD1 (ELMO domain containing 1) | 1 |
| 1.05 | ELMOD1 (ELMO domain containing 1) | 2 |
| 1.22 | SLC35A4 | 1 |
| 1 | TMEM186 (transmembrane protein 186) | 1 |
| 0.97 | SLC31A1 | 1 |
| 0.94 | ZBTB40 (zinc finger and BTB domain containing 40) | 1 |
| 1.03 | ITGAX (integrin subunit alpha X) | 1 |
| 0.96 | TMEM64 (transmembrane protein 64) | 1 |
| 0.92 | VAT1 (vesicle amine transport 1) | 1 |
| 1.35 | ZNF771 (zinc finger protein 771) | 1 |
| 1.1 | CKMT1B (creatine kinase, mitochondrial 1B) | 1 |
| 0.91 | CDK5R1 (cyclin dependent kinase 5 regulatory subunit 1) | 1 |
| 0.89 | TPGS2 (tubulin polyglutamylase complex subunit 2) | 1 |
| 1.36 | UEVLD (UEV and lactate/malate dehyrogenase domains) | 1 |
| 1.03 | ZNF160 (zinc finger protein 160) | 1 |
| 1.12 | MACF1 (microtubule actin crosslinking factor 1) | 1 |
| 0.88 | PDCD2L (programmed cell death 2 like) | 1 |
| 0.94 | CFAP141 (cilia and flagella associated protein 141) | 1 |

In a second layout: entries from further up.
{"gene symbol": "ZNF771 (zinc finger protein 771)", "reagent no.": 1, "CDH1-null / parental viability ratio": 1.35}
{"gene symbol": "CKMT1B (creatine kinase, mitochondrial 1B)", "reagent no.": 1, "CDH1-null / parental viability ratio": 1.1}
